Assay: BM1 level in human urine by HPLC-MS/MS

C[C@@H](O)[C@H](NC(=O)Nc1ncnc2c1ncn2[C@@H]1O[C@H](CO)C(O)C1O)C(=O)O (stereo partly drawn) [BM1, N6-Carbamoylthreonyl-D-adenosine]
Concentration in urine relative to plasma (healthy human subjects): 20-100 times
Reference level in urine (healthy or non-septic (heart failure) reference population): 2500-4500 ng BM1/mg Creatinine
Reference levels in urine of septic patients (septic patients): 5000-16000 ng/mg Creatinine

— patent US20230236206A1, “PREDICTING A SEPSIS CONDITION” (PHARM-ANALYT LABOR GMBH, priority 2020, published 2023)
